Reference: PubChem BioAssay AID1508600 (Functional Genomics Laboratory (NCATS/FGL), 2020)
In all, about 53,000 sequences went through this assay and about 3,700 (7%) were called active.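 The calls were made as follows: active = gene knockdowns whose robust z-score for IL-1 alpha signal is at least 2 or at most -2, so actives lie on both sides; inactive = the rest.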 The list shows a part of the results.

Assay: Components of the Cytosolic LPS Sensing Pathway: Gene Identification via Genome-wide siRNA Screen;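 also: robust z of the log signal after scaling to non-targeting control siRNA wells of the plate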
Conditions: RAW264.7 macrophages, IL-1a HTRF, actives lie on both sides, screened at 100 nM (by protocol), cells primed 5 h with Pam3CSK4 first
In short: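 RAW264.7 mouse macrophages reverse-transfected with single siRNAs (100 nM final) for 48h, primed with Pam3CSK4 for 5 hours, then transfected with LipidA for 24 hour. Supernatant IL-1a read by HTRF; values normalized to negative-control median, log-transformed robust z-scores.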

Row | Sequence | z-score
1 | GGCAUGGGAAUUAUUCCAATT against Kif5b | inactive: 0.89
2 | GGUCAUGAUCAAGACACAUTT against Tmem63c | inactive: 0.371
3 | CCAUAGGAACUUCUACUCCTT against Mical2 | inactive: -1.58
4 | CGAGGCUAUUGACUUCAUATT against Dusp1 | inactive: 0.107
5 | GAUCUCUGAAUUACGGAGUTT against Krtap13 | inactive: 0.796
6 | GGAACAGCAGCUUCCCUAATT against 4930555G01Rik | inactive: -0.0144
7 | GGAUUCAAGCAUCGGAUUGTT against Adamts6 | inactive: 1.11
8 | GCCUCUUCAGAUGGACCUATT against Tspan32 | inactive: -1.86
9 | GGGUCUGAUUGUCAAGGGATT against Me3 | inactive: -0.128
10 | GGCUUACCUUGGAUUUUAUTT against Rab36 | inactive: -1.31
11 | GGGUGAAUUUCAAAAGCUATT against Fbxo41 | inactive: 0.0699
12 | CCCUGAGUGCCGUAUGAUUTT against Ddb1 | inactive: -1.33
13 | GGUGAUGGAUGUGGACACATT against Dcbld2 | inactive: 0.554
14 | GGUGCUGGAGAACAUUAAATT against Panx1 | inactive: 0.451
15 | GCAUGCUAGGGAACCUGCUTT against Olfr1318 | inactive: -1.75
16 | GGACAGGUACUUUUCCCUGTT against Gnpda2 | inactive: -1.19
17 | GGAAGUGGAUGAGGAUUGATT against Purb | inactive: -1.85
18 | GGUGCUCACAGUGAAGAAGTT against Ppm1h | inactive: -1.33
19 | GCCUAUCAAUGUGUAUCUUTT against Tcf21 | inactive: -0.497
20 | GCUGUACAAUUUUAGGAGGTT against Slc17a2 | inactive: 0.485
21 | GGAUGAAAAGUUAAAGCAUTT against Ppp1r7 | inactive: -1.4
22 | GGGCCUGCCAGUGUGAUAUTT against Gpha2 | inactive: 0.53

Row | Sequence | z-score
23 | GGCUAAGCUGAAGAAGCACTT against Fam219b | inactive: -0.326
24 | GCCAAACGUGGGUUUGAUATT against Ccna1 | active: 4.74
25 | CCUGGUGACAUCACUAAAATT against P4ha1 | inactive: -0.752
26 | GGAGAUUGUGGAAAUGCUUTT against Skiv2l | inactive: 0.459
27 | CGGAGCCAGUUGGUAAAGATT against Vps39 | inactive: -0.128
28 | GGUGUAUAGUUUUACACUCTT against Psen2 | inactive: -0.289
29 | GGCAAAGAGUUUUGAUCAGTT against Calu | inactive: -0.434
30 | GCUGUGUGUUGUUCAAUUGTT against Pdcd6ip | inactive: 0.0624
31 | CCCUGAGAAGGAUGCGAAATT against Mgat4b | inactive: 0.44
32 | GGGCAUGCUGCUUAUUGUGTT against Slc5a4b | inactive: -0.8
33 | CGACAUGGAAUGUUCACACTT against Metap2 | inactive: 1.03
34 | GGAGAAGCUAAGAAACGAGTT against Acyp2 | inactive: -0.696
35 | GGCAUAGCACUUUUGUACCTT against Lancl2 | inactive: 0.327
36 | GGGAAACUCCAGUUCAAAGTT against Zbtb18 | inactive: -0.365
37 | GGUGUCUUUGCUCAGCUCATT against Lrfn4 | active: -2.93
38 | GCACAACAUCACGGUGAACTT against Adcy5 | inactive: -0.672
39 | GGUGCAACAACACCACAUCTT against Mmp1a | inactive: -0.382
40 | GUUUUUCUGGGCAAUUUUATT against Olfr739 | active: 2.11
41 | GAGACAUCCUCUUCACCAUTT against Olfr495 | inactive: -1.25
42 | GGAUCUUUCAAAGAGAGUUTT against Egfl8 | inactive: 1.51
43 | GGAUCACUGGGAAAACGGUTT against Nfatc2 | inactive: 1.66
44 | CGGAAAGCACAAAAACACUTT against Clec2g | inactive: 1.59

Row | Sequence | z-score
45 | GGGUACUGUUUUGUUAACUTT against Rbm18 | inactive: 0.547
46 | GGCCAGAGUAUCGAUGUUCTT against Slc25a14 | inactive: -0.566
47 | GCAGCAUCUAAGAGUGGCGTT against Smtnl1 | inactive: 0.298
48 | GGACAGUUCCAUGAAUACCTT against Rab5b | inactive: -0.655
49 | GGUGAAACGGGAUGUUAACTT against Ppargc1b | inactive: -0.102
50 | CGACCAAGAUGUAAUACAUTT against Nudt8 | inactive: 0.474
51 | GGAUGUUAAAGCAAGUGUATT against Olfr1153 | inactive: 0.169
52 | GGAGACCUUGAAGAAGAUUTT against Vav2 | inactive: 0.183
53 | GGUGAAAACGUGGUUCCAGTT against Bsx | inactive: -0.0072
54 | GGCCUUGAAAUACUAUAAGTT against Ttc24 | inactive: -0.478
55 | GCCGUACCGGAUUUUUUUCTT against Smyd3 | active: 4
56 | GGUUCAGAAGUUUGGGAGATT against Mrpl48 | inactive: 0.615
57 | GGAUUUGAUGGAAAUGUCATT against Dcaf10 | inactive: 0.636
58 | GGAAGAUGGGCGACUCUAUTT against Pkmyt1 | inactive: 0.176
59 | GGACAUCAUGUGCAUGGAATT against Fbxo38 | inactive: 1.29
60 | GGUAUACCAGAGGAAGAAGTT against Slc39a11 | inactive: 0.9
61 | GGAUCAAAAACACAUACUUTT against Adgre4 | active: 2.37
62 | GGUUGAAGUUGAAGUUUAATT against Top3a | inactive: -0.451
63 | GCUCAGUACUCAGAAGUGCTT against Olfr578 | inactive: 0.328
64 | GCUAGUUGAGGACUGAUAUTT against Chrna4 | inactive: 1.34
65 | GGCUUUCGCUAGAAAACUCTT against Sftpc | inactive: 0.531
66 | GGUAGGACCCAAACAUGUATT against Klhl31 | inactive: -0.0474

Row | Sequence | z-score
67 | GCUGCCUAUGGCUUCUUCCTT against Tmem160 | inactive: -1.37
68 | GGGCACUCAAGUGUAUGUCTT against Hpx | inactive: 0.224
69 | CCUCAAGGAUAAUUAUUACTT against Mgat4d | inactive: -1.56
70 | GCUGGGACUGCUUGAGAUATT against AF067063 | inactive: -0.338
71 | CCAAUUAUGUGAGAAGUGATT against Snx24 | inactive: 0.463
72 | GGCUGUGGUCUUCAUUGAATT against Tpcn2 | inactive: -0.467
73 | GUGCUUGAUCUCUUCGAUGTT against Ppt2 | inactive: 0.207
74 | GGAGGAGAGGAGAAUAGCATT against Atp5k | inactive: -0.586
75 | CCUACCGAGGUCAAGAAUUTT against Asf1a | inactive: -1.27
76 | GGACUCAUCUUUAUUAUUCTT against Olfr393 | inactive: -0.324
77 | GGAUCAGAUUCUCUUCUUCTT against Gypa | inactive: 0.531
78 | GGGCUAAGUACCAAACUCATT against Ly6e | inactive: -1.71
79 | GGAGAAGUGACUUUUUCGUTT against Herc4 | inactive: 0.564
80 | CCUUAUAGCUAUGACUUUCTT against Tas2r136 | inactive: 0.172
81 | GGUAAACCGAGUGAUGACCTT against Ift43 | inactive: 1.38
82 | GGAAAGGAAAAAAAAGGAATT against Dync1i2 | inactive: 0.282
83 | GGAGCGAGAGUAUCUAUUGTT against Trp53i13 | inactive: -0.355
84 | GCGCACAACAGACUUCUAUTT against Epm2a | inactive: 0.0628
85 | GGAUGGAAAUAAAUUCACATT against Fabp2 | inactive: -1.81
86 | GCAACUAGCGUGUGUUCCUTT against Arpc1a | active: 2.4
87 | GGAAGGAUUGCCUUUAGGATT against Rbm12b2 | inactive: 0.29
88 | GGAGAUGGAAAAGAACAGATT against Dtnb | inactive: 1.55

Four records picked at random from those above, as already listed:
Row | Sequence | z-score
70 | GCUGGGACUGCUUGAGAUATT against AF067063 | inactive: -0.338
85 | GGAUGGAAAUAAAUUCACATT against Fabp2 | inactive: -1.81
88 | GGAGAUGGAAAAGAACAGATT against Dtnb | inactive: 1.55
67 | GCUGCCUAUGGCUUCUUCCTT against Tmem160 | inactive: -1.37

Later entries:

Row | Sequence | z-score
89 | GGUUCUGCUGUACUCCUUGTT against Wrap73 | inactive: 1.36
90 | GGUCUAUGGCUUAAACUUUTT against Evl | inactive: 0.68
91 | CCCGGAACUUAACUCUGUATT against Gm5148 | inactive: -1.51
92 | GGAGACAAUAAUUGAAGAUTT against Gabpb2 | inactive: -1.4
93 | CCUGGACACGAUUUCAGAGTT against Rbm6 | inactive: 1.18
94 | GGAGAGCGAAGAAAAAAUGTT against Birc2 | inactive: -0.852
95 | GGUCCAUAAAGAAACCAUATT against Zfp207 | inactive: 0.436
96 | AGAACAGAGGGCUACCUUGTT against Ly6g6e | inactive: 1.37
97 | GGAGCUGCGCUUGACAUUGTT against Neil1 | inactive: -1.6
98 | GGCUCUUAUUUUUGUAAAGTT against Rgl1 | inactive: -1.61
99 | GGAAAUCCCGGGAUGUCAGTT against Pnliprp2 | inactive: -1.45
100 | GGAUACUUUUCUUCUAAGATT against Krtap15 | inactive: -1.44
101 | CCUUUCCCUCCAUUUAGGGTT against Sit1 | inactive: -1.46
102 | CUUUGUACUAUGGUUCAAUTT against Olfr1010 | inactive: -1.49
103 | GGAGUCCACAUGGAAAUCATT against Mei4 | inactive: 0.383
104 | GGCUAUGUUCACCUGUGGATT against Kbtbd12 | active: -2.66
105 | CCUGAUAAGCAAAUACGGCTT against Rep15 | inactive: -0.893
106 | GGAGCUAGGAAGGUGGUAGTT against Mutyh | inactive: -1.77
107 | CCAGGACAAUAACUCUGAGTT against Aatk | inactive: -1.28

Four entries from above, with each value named:
GGUUCUGCUGUACUCCUUGTT against Wrap73
  z-score: inactive: 1.36
GGUCUAUGGCUUAAACUUUTT against Evl
  z-score: inactive: 0.68
CCCGGAACUUAACUCUGUATT against Gm5148
  z-score: inactive: -1.51
GGAGACAAUAAUUGAAGAUTT against Gabpb2
  z-score: inactive: -1.4
